Measured values as given in patent US20220226470A1, “ANTIBODIES AND METHODS FOR TREATMENT OF INFLUENZA A INFECTION” (HUMABS BIOMED SA, priority 2019, published 2022).
At least one structure is not confirmed: it was looked up by name or label, or the drawing left a doubt.

Tested on: H3N2 and H1N1 strains
Assay type: cell-based, influenza A virus

In the case of `COC(=O)OCOc1c2n(ccc1=O)N([C@@H]1c3ccccc3SCc3c1ccc(F)c3F)[C@@H]1COCCN1C2=O` [baloxavir marboxil], the “relative calculated IC50” value is reported as 4.9-2.3.
